The structures appear in SMILES notation. The list shows a part of the results. These are further read-outs of the screen, such as a control signal, another cell line or another target. No call is given for them. Compounds called inactive in the main read-out are mostly missing here. Words in brackets tell the shape of the fitted curve; partial curves, single points and poor fits give uncertain potencies.

This assay is described as follows: qHTS Assay for Lipid Storage Modulators in Drosophila S3 Cells.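 For cell number change: cells counted by Cell Tracker Red CMTPX staining in the red channel.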 The following applies: BODIPY lipid droplet fluorescence, 18-24 h; for cell number change: measured here: cell count max response, cells fed with added oleic acid. An outline of the steps: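 Laser-scanning cytometry quantifies lipid droplet accumulation (500–530 nm total intensity; droplet/cell object ratio) in oleic acid-fed (400 uM added) Drosophila S3 cells treated with a concentration series. 20 uM Triacsin C defined 100% inhibition.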

Where [1] appears, read: measured here: cell number channel AC50, cells fed with added oleic acid.
[2] abbreviates: measured here: lipid fluorescence (Fed channel) AC50, cells fed with added oleic acid.

Turning to `Cc1ccc(C)c(OCc2nc3ccccc3[nH]2)c1`, the cell number change amounted to 19.9%. `CC(C)N1C(=O)S/C(=C/c2ccccc2OCc2ccc(C(=O)O)cc2)C1=O`: the cell number change is 6.49%. For orientation: AC50 means the concentration at which the activity in the assay is half-maximal. Read a high AC50 as weaker potency. Take `COc1ccc(C(=O)NC2CCCc3c2cnn3-c2cc(F)cc(F)c2)c(OC)n1` (centres undefined): the cell number change is -38.8%. For the same compound, the concentration at half-maximal activity (AC50) under setting [1] was 3.26 µM [falling, partial curve, poor fit]. Further, the AC50 under setting [2] is 6.51 µM [falling, partial curve, poor fit].

On to `COc1ccccc1N1CCN(C(=O)c2cc(=O)c3cc(C)ccc3o2)CC1`, for which the cell number change came out at 16.7%. For the same compound, under setting [2], the AC50 is 0.461 µM [rising, partial curve]. As to `O=C(Nc1ncccc1O)c1ccc(S(=O)(=O)N2CCCCCC2)cc1`, the half-maximal activity concentration (AC50) under setting [1] was 0.291 µM [rising, full curve, poor fit].

Turning to `COc1ccc(NC(=S)N(Cc2ccc(C(=O)O)cc2)Cc2ccc(OC)c(OC)c2)cc1`, the cell number change was determined as 20.7%. Besides, under setting [1], the AC50 was 0.0058 µM [falling, full curve, poor fit]. Also, the AC50 under setting [2] was 0.00517 µM [falling, full curve, poor fit]. As for `CCc1sc(C(=O)NCc2ccco2)cc1C`, the half-maximal activity concentration (AC50) under setting [2] was 23.1 µM [rising, partial curve]. For `Cc1c(Cc2ccccc2)c(=O)oc2c(C)c(OCC(=O)NCc3ccccn3)ccc12`, the cell number change amounted to 3.88%. Besides, the AC50 under setting [2] is 0.0731 µM [falling, full curve, poor fit]. Take `COCCn1c(-c2ccco2)csc1=Nc1cccnc1`: the cell number change stood at 31.2%. Further, the concentration at half-maximal activity (AC50) under setting [1] is 0.461 µM [rising, full curve].

On to `Cc1ccc(NC(=O)COC(=O)c2cccnc2Cl)cc1S(=O)(=O)N1CCCCC1`, for which the cell number change was -0.704%. For the same compound, under setting [2], the AC50 was 0.82 µM [falling, single point]. `NC(=O)c1sc2nccc(Nc3ccccc3)c2c1N`: the cell number change was -4.52%.

On to `CCNC(=S)N/N=C/c1ccc(-c2ccccc2)o1`, for which the cell number change was found to be 14.6%. Moreover, the AC50 under setting [2] was 29.1 µM [rising, single point]. In the case of `CCN1/C(=C/C=C/c2oc3ccc4ccccc4c3[n+]2CC)Oc2ccc3ccccc3c21`, the cell number change is -46.7%. Besides, under setting [1], the AC50 is 20.6 µM [falling, partial curve, poor fit]. In addition, under setting [2], the AC50 was 0.58 µM [falling, full curve]. In the case of `O=C(NC(=S)N1CCCc2ccccc21)c1ccc([N+](=O)[O-])cc1`, the cell number change was -112%. Moreover, the AC50 under setting [1] was 29.1 µM [falling, single point]. Take `Cc1ccc(NS(=O)(=O)c2cccc(C(=O)NN3CCOCC3)c2)cc1`: the cell number change came to 1.91%. Further, the AC50 under setting [2] was 3.26 µM [rising, single point].

On to `Cc1ccc(-c2nn[nH]n2)o1`, for which the cell number change was 0.561%. As to `CC(=O)c1cccc(NC(=O)CN(c2ccccc2F)S(C)(=O)=O)c1`, the cell number change was 72.9%. In addition, under setting [1], the AC50 was 16.4 µM [rising, partial curve]. Moreover, the AC50 under setting [2] was 7.31 µM [falling, single point]. On to `O=C(COc1ccc(F)cc1)N1CCCc2ccccc21`, for which the cell number change came to 0.895%. Moreover, the AC50 under setting [2] is 3.66 µM [rising, single point]. Regarding `O=C(CCCc1c[nH]c2ccccc12)Nc1ccc2ccccc2c1`, the cell number change was -11.5%. In addition, the AC50 under setting [2] is 18.4 µM [falling, single point]. Consider `O=C(NCCc1csc(-c2cccnc2)n1)c1c(F)cccc1F`, for which the cell number change was 16.8%. In addition, the AC50 under setting [2] was 2.91 µM [rising, partial curve, poor fit]. `CCn1nc(NC(=O)c2ccccn2)c2cc3cc(C)ccc3nc21`: the cell number change came out at 3.3%. Under setting [2], the AC50 is 0.13 µM [rising, full curve]. Take `Cc1ccc(S(=O)(=O)N2CCOCC2)cc1NC(=O)COC(=O)COc1cccc2c1OC(C)(C)C2`: the cell number change is -0.56%. Moreover, under setting [1], the AC50 is 2.06 µM [falling, partial curve]. Besides, the AC50 under setting [2] was 1.64 µM [falling, partial curve]. Take `CCCCOc1ccc(C(=O)Nc2ccc(C)cc2[N+](=O)[O-])cc1`: the cell number change amounted to 20.5%. The AC50 under setting [2] was 3.66 µM [rising, full curve]. On to `COc1ccccc1CNC(=O)CSc1nnc2c(n1)[nH]c1ccc(F)cc12`, for which the cell number change worked out at 0.435%. Besides, the concentration at half-maximal activity (AC50) under setting [2] was 0.58 µM [falling, single point]. For `Nc1ccc(C23CC4CC(CC(CO)(C4)C2)C3)cc1`, the cell number change worked out at 4.82%. The AC50 under setting [2] was 6.51 µM [falling, single point].

`O=C(NC1CCCCCC1)C1CCN(S(=O)(=O)c2cnc[nH]2)CC1`: the cell number change was found to be 0.86%. Also, under setting [2], the AC50 was 0.58 µM [rising, single point].

As for `Cc1ccc(CNC(=O)COC(=O)C2CCN(S(=O)(=O)c3cccs3)CC2)cc1`, the cell number change was 77.1%. In addition, the AC50 under setting [1] is 13 µM [rising, single point]. In addition, under setting [2], the AC50 is 23.1 µM [rising, single point]. `O=C(OCc1nnc(-c2ccccc2)o1)C1CCN(S(=O)(=O)c2cccs2)CC1`: the cell number change was -14%. In addition, under setting [2], the AC50 was 29.1 µM [rising, single point]. Regarding `Cc1nc(N)sc1C(=O)N/N=C/c1c[nH]c2ccccc12`, under setting [1], the AC50 was 6.51 µM [rising, single point].

`Cc1ccc(NC(=O)CN(C)C(=O)Cn2ncc(Cl)c(Cl)c2=O)cc1`: the cell number change was -30.4%. Under setting [1], the AC50 is 1.16 µM [falling, full curve, poor fit]. Moreover, under setting [2], the concentration at half-maximal activity (AC50) was 5.17 µM [falling, partial curve]. As for `COc1cc(/C=N\NC(=O)c2cccc(Cl)c2)ccc1Oc1ccc([N+](=O)[O-])cn1`, the cell number change was -8.65%. Regarding `c1cn2c(NC3CCCC3)c(-c3ccc(N4CCOCC4)cc3)nc2cn1`, the AC50 under setting [2] was 0.00517 µM [falling, full curve, poor fit]. As for `Cc1cc(C)c(NC(=O)CN(C)C(=O)c2ccc(OCc3ccccc3)cc2)c(C)c1`, the cell number change was determined as 3.99%. The half-maximal activity concentration (AC50) under setting [2] is 3.66 µM [falling, single point].

In the case of `Cc1ccc(F)cc1NC(=O)CN1CCN(c2ccccn2)CC1`, the cell number change is 60.5%. For the same compound, the AC50 under setting [1] is 0.206 µM [rising, full curve]. Further, the AC50 under setting [2] is 0.231 µM [rising, full curve, poor fit]. For `Cc1oc(=O)c(NC(=O)c2ccccc2)cc1C(N)=O`, the cell number change was -19.4%. With `COC(=O)c1ccc(C2C(C(=O)c3cc4ccccc4o3)=C(O)C(=O)N2c2cc(C)on2)cc1` (centres undefined), the cell number change was -4.72%. In addition, the AC50 under setting [2] is 18.4 µM [rising, partial curve]. Regarding `CCN(CC)S(=O)(=O)c1cccc(C(=O)OCC(=O)c2ccc3c(c2)OCCO3)c1`, the AC50 was 3.26 µM [falling, partial curve] under setting [1] and 29.1 µM [rising, partial curve, poor fit] under setting [2]. `O=c1oc2c3c4c(cc2c(C(F)(F)F)c1CCN1CCOCC1)CCCN4CCC3`: the AC50 under setting [2] is 5.8 µM [rising, single point].

With `CCOC(=O)c1ccc(NC(C)=O)c([N+](=O)[O-])c1`, the cell number change came to 38.2%. The AC50 under setting [1] is 3.66 µM [rising, partial curve]. The AC50 under setting [2] is 4.61 µM [rising, full curve].

For `CS(=O)(=O)N(Cc1ccc(Cl)cc1)c1ccc(C(=O)N2CCN(c3ccccc3)CC2)cc1`, the cell number change was -11.7%. Under setting [1], the half-maximal activity concentration (AC50) was 0.259 µM [falling, partial curve, poor fit]. Also, the half-maximal activity concentration (AC50) under setting [2] was 0.058 µM [falling, full curve, poor fit]. Regarding `Cc1cccc(NC(=O)COC(=O)c2cc3ccccc3oc2=O)c1`, the cell number change is 13.5%. Moreover, the AC50 under setting [1] was 0.82 µM [falling, single point]. Take `CC(C)CC1C(C#N)=C(N)Oc2n[nH]c(-c3cccs3)c21` (centres undefined): the AC50 under setting [1] is 2.91 µM [rising, single point]. As for `CC(NC(=O)c1ccc(C(F)(F)F)cc1)C(c1ccccc1)N1CCOCC1` (centres undefined), the cell number change is 1.59%. As to `CCc1nnc(NC(=O)CSc2ncc(-c3ccccc3)[nH]2)s1`, the cell number change came out at 56.3%. In addition, under setting [1], the AC50 is 10.3 µM [rising, partial curve]. In the case of `C/C(CCC1CC(C)(C)OC1=O)=N\NC(N)=S` (centres undefined), the cell number change was 7.04%. The same measure, in the same setting: in the case of `CCOC(=O)Nc1sc2c(c1C(N)=O)CCC(C)C2` (centres undefined) it was -2.24%.

On to `O=C(NNC(=O)C1CCN(S(=O)(=O)c2ccccc2)CC1)c1ccccc1O`, for which the cell number change was found to be 14%. Further, under setting [2], the AC50 is 4.47 µM [rising, single point]. With `COc1cc(C(=O)OCC(=O)NCc2ccc(F)cc2)cc(NC(=O)c2cccs2)c1OC`, the cell number change was -48.1%. The AC50 under setting [1] is 23.1 µM [falling, partial curve]. In addition, the AC50 under setting [2] is 18.4 µM [falling, single point]. Consider `CC1CCCN(CCOc2ccc(Br)cc2)C1` (centres undefined), for which the cell number change was 1.18%. For the same compound, the AC50 under setting [2] was 4.61 µM [rising, full curve, poor fit]. As to `N#C/C(=C1/CCCCCN1)c1nnc2n1CCCCC2`, the cell number change turned out to be 1.51%. For the same compound, the concentration at half-maximal activity (AC50) under setting [2] is 29.1 µM [falling, partial curve]. For the compound `CC(C)N(C(=O)CN1C(=O)NC2(CCCCCC2)C1=O)C(C)C`, the AC50 under setting [2] is 6.51 µM [falling, single point].

As to `CCN(CC(=O)Nc1c(F)cccc1F)C(=O)c1ccc(=O)[nH]c1`, the cell number change was 21.1%. As for `O=c1c(Cc2c(F)cccc2Cl)c(O)ccn1CCCn1ccnc1`, the cell number change was -0.214%. For `CCOC(=O)c1ccc(N=c2sc(C(=O)OC)cc(=O)n2-c2ccc(C(=O)OCC)cc2)cc1`, the cell number change was -18%. The AC50 under setting [2] is 0.92 µM [falling, full curve, poor fit]. On to `COc1ccc(NS(=O)(=O)c2ccc(C)c(NC(=O)CN3C(=O)NC4(CCCC4)C3=O)c2)cc1`, for which the cell number change stood at 0.333%. The AC50 under setting [2] is 6.51 µM [falling, single point]. In the case of `CC(C(=O)N1CCCc2ccccc21)N1CCN(S(=O)(=O)c2ccccc2F)CC1` (centres undefined), the cell number change stood at 31.3%. The AC50 under setting [1] is 9.2 µM [rising, single point]. In addition, the AC50 under setting [2] is 6.51 µM [rising, single point]. On to `Cc1ccc(/C=N/NC(=O)c2cc(C)oc2C)cc1`, for which the cell number change turned out to be 28.7%. Also, under setting [2], the AC50 was 2.59 µM [rising, partial curve]. Regarding `CC(C)=CCCC1=CCC(/C=N/NC(N)=O)C(C)C1` (centres undefined), the cell number change is -4.83%. As to `CCCCCCCCNC(=O)/C(C#N)=C/c1ccc2c(c1)OCCO2`, the cell number change turned out to be 3.79%. For the same compound, under setting [1], the half-maximal activity concentration (AC50) was 0.259 µM [rising, full curve, poor fit]. Moreover, the AC50 under setting [2] is 18.4 µM [rising, single point]. As for `CN(C(=O)COC(=O)CNC(=O)C12CC3CC(CC(C3)C1)C2)c1ccccc1`, the cell number change came out at 23.3%. Also, the AC50 under setting [1] was 3.26 µM [rising, full curve, poor fit].

(Values after PubChem BioAssay AID2685 (National Center for Advancing Translational Sciences (NCATS), 2010).)
